# Data as given in the supplement of paper PMC10849652.
# Amino acid sequences for entries named in this document (tags omitted). A change or cut given only in a name is not applied to a line headed by its entry.
# UniProt Q6P4H8: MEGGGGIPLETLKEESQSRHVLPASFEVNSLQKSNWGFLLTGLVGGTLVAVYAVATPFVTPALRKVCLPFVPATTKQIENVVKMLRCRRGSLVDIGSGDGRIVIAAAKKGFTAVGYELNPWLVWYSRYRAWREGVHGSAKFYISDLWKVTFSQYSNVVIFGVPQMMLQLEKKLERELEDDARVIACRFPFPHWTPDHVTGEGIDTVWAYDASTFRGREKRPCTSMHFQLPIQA
# UniProt P49407: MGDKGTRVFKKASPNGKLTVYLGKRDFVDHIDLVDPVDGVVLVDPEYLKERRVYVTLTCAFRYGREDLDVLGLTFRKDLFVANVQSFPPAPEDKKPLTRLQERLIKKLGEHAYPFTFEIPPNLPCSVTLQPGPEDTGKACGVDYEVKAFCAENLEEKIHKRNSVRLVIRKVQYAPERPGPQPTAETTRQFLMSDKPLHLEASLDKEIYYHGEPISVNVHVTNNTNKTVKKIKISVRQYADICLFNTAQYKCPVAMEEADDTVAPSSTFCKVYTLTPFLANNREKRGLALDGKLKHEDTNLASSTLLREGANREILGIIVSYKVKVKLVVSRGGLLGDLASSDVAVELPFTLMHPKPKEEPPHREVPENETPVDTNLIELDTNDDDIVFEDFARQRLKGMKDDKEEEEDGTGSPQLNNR
# UniProt Q8IXJ9: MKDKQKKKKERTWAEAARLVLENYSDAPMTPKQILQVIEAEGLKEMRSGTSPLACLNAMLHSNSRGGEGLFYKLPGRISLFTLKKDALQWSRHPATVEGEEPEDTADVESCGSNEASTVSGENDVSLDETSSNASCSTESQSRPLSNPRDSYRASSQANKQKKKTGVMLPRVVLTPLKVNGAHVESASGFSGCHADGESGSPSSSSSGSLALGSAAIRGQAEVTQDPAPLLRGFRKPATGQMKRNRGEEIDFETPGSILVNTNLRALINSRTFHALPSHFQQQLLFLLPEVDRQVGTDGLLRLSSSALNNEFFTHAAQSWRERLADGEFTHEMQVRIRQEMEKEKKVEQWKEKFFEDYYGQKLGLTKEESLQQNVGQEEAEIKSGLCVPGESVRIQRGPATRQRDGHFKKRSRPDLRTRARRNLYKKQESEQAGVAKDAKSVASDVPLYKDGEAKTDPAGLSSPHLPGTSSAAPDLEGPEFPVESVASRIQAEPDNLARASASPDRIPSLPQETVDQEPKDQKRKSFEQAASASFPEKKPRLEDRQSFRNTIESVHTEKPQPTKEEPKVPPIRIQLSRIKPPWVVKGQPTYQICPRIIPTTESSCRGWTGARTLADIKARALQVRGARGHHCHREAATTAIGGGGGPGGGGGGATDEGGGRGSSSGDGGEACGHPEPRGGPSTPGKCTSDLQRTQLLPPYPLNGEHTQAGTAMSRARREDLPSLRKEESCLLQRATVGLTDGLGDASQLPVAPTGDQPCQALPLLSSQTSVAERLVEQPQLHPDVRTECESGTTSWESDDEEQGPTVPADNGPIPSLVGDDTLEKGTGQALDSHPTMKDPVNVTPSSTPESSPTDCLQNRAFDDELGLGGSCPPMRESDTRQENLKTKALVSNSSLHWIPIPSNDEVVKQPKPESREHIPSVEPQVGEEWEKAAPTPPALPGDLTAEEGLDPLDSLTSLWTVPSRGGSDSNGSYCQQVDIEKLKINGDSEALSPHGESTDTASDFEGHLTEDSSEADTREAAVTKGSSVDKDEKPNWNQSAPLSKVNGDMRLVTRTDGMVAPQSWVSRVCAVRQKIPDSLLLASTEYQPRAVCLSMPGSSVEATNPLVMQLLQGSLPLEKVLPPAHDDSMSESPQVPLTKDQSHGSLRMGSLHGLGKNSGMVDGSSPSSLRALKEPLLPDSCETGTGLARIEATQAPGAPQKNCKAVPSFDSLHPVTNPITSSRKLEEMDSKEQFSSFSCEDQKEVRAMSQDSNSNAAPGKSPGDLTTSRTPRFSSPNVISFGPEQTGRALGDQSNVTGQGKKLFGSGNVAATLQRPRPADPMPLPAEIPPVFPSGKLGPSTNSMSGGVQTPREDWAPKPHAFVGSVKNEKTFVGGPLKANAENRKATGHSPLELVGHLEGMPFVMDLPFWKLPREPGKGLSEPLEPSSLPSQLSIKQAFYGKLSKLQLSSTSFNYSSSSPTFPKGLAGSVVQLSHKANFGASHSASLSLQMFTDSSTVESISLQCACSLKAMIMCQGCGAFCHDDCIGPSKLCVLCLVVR
# UniProt P08243: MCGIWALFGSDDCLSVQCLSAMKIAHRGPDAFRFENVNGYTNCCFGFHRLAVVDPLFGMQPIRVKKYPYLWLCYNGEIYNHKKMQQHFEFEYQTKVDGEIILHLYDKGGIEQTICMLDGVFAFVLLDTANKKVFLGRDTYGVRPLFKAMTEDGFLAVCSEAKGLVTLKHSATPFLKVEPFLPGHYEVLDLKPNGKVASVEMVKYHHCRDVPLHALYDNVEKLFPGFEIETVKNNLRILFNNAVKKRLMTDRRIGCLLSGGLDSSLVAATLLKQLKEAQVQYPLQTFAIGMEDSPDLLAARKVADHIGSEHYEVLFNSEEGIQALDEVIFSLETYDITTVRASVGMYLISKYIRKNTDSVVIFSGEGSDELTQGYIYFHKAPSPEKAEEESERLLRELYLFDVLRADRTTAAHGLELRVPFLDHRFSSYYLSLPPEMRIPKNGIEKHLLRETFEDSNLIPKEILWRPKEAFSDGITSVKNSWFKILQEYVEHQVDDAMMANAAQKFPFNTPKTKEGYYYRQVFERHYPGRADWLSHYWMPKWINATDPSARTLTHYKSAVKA
# UniProt P18850: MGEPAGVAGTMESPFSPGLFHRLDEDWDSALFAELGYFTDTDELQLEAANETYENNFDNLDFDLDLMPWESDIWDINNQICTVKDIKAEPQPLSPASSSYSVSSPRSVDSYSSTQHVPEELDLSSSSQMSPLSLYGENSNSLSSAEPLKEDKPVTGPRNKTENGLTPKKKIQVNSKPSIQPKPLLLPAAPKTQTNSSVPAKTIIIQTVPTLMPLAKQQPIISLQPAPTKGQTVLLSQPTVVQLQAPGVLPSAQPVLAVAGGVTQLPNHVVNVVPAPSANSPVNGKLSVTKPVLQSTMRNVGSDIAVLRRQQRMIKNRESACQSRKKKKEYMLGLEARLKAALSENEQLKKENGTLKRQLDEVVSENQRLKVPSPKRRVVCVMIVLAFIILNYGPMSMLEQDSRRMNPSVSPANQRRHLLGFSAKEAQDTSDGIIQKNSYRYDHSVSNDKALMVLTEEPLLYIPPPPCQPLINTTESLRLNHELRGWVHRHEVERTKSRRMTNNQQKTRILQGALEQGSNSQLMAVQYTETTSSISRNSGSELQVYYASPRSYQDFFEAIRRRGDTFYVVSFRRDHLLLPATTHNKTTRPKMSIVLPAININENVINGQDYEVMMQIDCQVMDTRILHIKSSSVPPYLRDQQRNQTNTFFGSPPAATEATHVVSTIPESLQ
# UniProt Q76L83: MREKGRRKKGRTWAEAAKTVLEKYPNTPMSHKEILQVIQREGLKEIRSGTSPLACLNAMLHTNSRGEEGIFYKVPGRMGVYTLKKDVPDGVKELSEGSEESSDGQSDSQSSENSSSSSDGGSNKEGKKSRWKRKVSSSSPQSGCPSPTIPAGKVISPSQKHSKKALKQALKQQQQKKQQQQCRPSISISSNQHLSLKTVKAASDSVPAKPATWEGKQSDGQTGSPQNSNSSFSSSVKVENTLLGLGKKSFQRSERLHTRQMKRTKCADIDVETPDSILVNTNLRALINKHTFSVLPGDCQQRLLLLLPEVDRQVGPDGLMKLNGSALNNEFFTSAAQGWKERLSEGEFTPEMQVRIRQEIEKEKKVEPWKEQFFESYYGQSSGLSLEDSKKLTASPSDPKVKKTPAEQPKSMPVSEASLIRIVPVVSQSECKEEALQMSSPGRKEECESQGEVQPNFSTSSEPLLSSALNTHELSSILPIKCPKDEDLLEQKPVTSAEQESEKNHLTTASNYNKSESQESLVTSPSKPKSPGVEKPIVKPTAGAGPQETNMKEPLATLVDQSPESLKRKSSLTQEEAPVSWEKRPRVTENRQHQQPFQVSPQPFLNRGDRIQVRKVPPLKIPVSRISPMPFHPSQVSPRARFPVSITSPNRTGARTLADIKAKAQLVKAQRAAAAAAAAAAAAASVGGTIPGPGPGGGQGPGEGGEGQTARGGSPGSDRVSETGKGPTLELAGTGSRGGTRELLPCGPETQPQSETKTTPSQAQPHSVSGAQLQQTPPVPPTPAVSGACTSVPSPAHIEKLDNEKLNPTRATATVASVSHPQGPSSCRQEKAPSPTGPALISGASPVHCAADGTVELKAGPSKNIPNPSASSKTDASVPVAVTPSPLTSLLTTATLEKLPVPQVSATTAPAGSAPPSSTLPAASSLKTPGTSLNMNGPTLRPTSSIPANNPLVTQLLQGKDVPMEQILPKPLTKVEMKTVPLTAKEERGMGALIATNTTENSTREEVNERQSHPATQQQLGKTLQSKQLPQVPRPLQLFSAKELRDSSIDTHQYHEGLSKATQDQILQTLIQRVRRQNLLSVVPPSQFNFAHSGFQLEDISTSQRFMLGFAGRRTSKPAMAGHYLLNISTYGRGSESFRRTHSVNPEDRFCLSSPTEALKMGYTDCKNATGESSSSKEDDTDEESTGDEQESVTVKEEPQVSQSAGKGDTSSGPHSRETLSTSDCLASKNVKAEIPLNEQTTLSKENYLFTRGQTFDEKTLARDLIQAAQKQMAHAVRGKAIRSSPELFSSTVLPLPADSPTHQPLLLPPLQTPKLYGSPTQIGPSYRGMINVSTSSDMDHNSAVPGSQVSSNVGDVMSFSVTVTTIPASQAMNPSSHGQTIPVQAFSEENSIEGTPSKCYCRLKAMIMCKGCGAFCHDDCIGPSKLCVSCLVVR
# UniProt P18846: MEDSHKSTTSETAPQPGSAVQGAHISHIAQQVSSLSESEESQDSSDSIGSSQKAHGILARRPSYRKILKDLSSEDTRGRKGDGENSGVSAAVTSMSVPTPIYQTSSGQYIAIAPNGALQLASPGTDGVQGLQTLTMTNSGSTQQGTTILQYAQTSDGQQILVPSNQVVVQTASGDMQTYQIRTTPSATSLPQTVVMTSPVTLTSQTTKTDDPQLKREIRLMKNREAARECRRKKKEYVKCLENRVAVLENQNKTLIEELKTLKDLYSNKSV
# UniProt Q9Y6H3: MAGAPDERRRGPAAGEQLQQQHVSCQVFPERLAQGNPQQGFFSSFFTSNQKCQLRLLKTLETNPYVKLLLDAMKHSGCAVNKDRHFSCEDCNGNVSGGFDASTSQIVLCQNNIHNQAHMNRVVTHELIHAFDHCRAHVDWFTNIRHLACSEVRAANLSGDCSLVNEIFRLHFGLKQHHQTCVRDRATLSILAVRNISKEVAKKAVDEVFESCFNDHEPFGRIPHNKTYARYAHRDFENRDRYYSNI
# UniProt O95260: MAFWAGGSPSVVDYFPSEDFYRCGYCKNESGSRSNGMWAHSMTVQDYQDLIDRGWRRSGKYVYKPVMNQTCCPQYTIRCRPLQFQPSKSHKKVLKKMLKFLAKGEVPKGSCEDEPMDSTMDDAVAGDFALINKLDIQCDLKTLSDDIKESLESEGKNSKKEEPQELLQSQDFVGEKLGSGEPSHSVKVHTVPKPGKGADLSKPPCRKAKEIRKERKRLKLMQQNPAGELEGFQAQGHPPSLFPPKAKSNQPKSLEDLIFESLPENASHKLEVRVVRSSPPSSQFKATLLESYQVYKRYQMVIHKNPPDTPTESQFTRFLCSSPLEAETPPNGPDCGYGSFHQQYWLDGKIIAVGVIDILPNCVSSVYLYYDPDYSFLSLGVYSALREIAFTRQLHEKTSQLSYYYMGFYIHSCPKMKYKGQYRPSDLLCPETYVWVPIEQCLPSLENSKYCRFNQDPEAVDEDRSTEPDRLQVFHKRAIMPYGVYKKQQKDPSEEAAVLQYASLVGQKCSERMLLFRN
# UniProt Q9H0F7: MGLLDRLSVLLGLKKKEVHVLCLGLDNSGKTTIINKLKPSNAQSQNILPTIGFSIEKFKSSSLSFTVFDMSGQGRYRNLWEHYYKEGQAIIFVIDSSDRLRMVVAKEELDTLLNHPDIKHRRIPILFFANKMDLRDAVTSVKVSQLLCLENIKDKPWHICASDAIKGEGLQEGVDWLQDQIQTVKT
# UniProt Q8WYN0: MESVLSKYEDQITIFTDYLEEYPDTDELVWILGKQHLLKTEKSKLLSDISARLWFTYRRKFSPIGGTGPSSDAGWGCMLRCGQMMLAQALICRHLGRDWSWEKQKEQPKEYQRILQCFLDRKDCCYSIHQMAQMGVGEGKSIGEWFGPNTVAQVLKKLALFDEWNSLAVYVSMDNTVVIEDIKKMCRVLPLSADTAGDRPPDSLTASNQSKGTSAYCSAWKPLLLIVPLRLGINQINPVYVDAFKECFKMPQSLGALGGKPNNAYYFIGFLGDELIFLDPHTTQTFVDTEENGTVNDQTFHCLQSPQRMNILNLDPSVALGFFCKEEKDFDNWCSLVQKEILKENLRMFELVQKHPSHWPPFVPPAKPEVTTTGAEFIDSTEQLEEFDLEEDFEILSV
# Some of the results follow.
# Tests used:
# Test in all cases: log2 fold change, soluble protein after heating vs DMSO (PISA); higher = thermal stabilisation; K562 cells, 10 uM, 30 min; active = over 0.2 and 3.5 SD of the protein, either way, in both replicates (recomputed)
# [1] = compound: CS(=O)(=O)c1ccc(-c2cnc(N)c(C(=O)Nc3ccccc3)n2)cc1
# Method in brief: (§1)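 K562 cells at 2×10^6 cells/mL were given 10 μM compound for 30 min. Aliquots then went through 3 min of heating across 48°C-58°C, were pooled, and were extracted in PBS with 0.5% NP-40 at 4°C, and the supernatant after 21,000xg for 90 min was quantified by TMTpro 16plex LC-MS/MS with channel sums equalised. Thermal stability relative to control samples, from duplicates, is given as log2 fold change.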
# [2] = compound: C[C@@H]1COCCN1C2=NC(=NC(=C2)C3(CC3)S(=O)(=O)C)C4=C5C=CNC5=CC=C4
# Method in brief: as §1
# [3] = compound: C[C@H](C1=CC=C(C=C1)C(=O)NC2=C3C=CNC3=NC=C2)N
# Method in brief: as §1
# duvelisib = compound: C[C@H](Nc1ncnc2nc[nH]c12)c1cc2cccc(Cl)c2c(=O)n1-c1ccccc1 [duvelisib]
# Method in brief: as §1
# gandotinib = compound: Cc1cc(Nc2cc(CN3CCOCC3)c3nc(C)c(Cc4ccc(Cl)cc4F)n3n2)n[nH]1 [gandotinib]
# Method in brief: as §1
# tozasertib = compound: Cc1cc(Nc2cc(N3CCN(C)CC3)nc(Sc3ccc(NC(=O)C4CC4)cc3)n2)n[nH]1 [tozasertib]
# Method in brief: as §1
# [4] = compound: Cc1cc(SCc2sc(-c3ccc(C(F)(F)F)cc3)nc2C)ccc1OCC(=O)O
# Method in brief: as §1
# bafetinib = compound: Cc1ccc(NC(=O)c2ccc(CN3CC[C@H](N(C)C)C3)c(C(F)(F)F)c2)cc1Nc1nccc(-c2cncnc2)n1 [bafetinib]
# Method in brief: as §1
# [5] = compound: Cc1cccc(CC(=O)N2CCc3c2ccc(-c2cn(C)c4ncnc(N)c24)c3F)n1
# Method in brief: as §1
# nilotinib = compound: Cc1cn(-c2cc(NC(=O)c3ccc(C)c(Nc4nccc(-c5cccnc5)n4)c3)cc(C(F)(F)F)c2)cn1 [nilotinib]
# Method in brief: as §1
# [6] = compound: Cc1nc(Nc2n[nH]c3c2CN(C(=O)N[C@H](CN(C)C)c2ccccc2)C3(C)C)c2sccc2n1
# Method in brief: as §1
# dasatinib = compound: Cc1nc(Nc2ncc(C(=O)Nc3c(C)cccc3Cl)s2)cc(N2CCN(CCO)CC2)n1 [dasatinib]
# Method in brief: as §1
# [7] = compound: Cc1ncc(-c2ccnc(Nc3ccc(S(C)(=O)=O)cc3)n2)n1C(C)C
# Method in brief: as §1
# [8] = compound: Cn1cc(-c2ccc3c(c2)CCN3C(=O)Cc2cccc(C(F)(F)F)c2)c2c(N)ncnc21
# Method in brief: as §1
# tipifarnib = compound: Cn1cncc1[C@@](N)(c1ccc(Cl)cc1)c1ccc2c(c1)c(-c1cccc(Cl)c1)cc(=O)n2C [tipifarnib]
# Method in brief: as §1
# mubritinib = compound: FC(F)(F)c1ccc(/C=C/c2nc(COc3ccc(CCCCn4ccnn4)cc3)co2)cc1 [mubritinib]
# Method in brief: as §1
# crizotinib = compound: C[C@@H](Oc1cc(-c2cnn(C3CCNCC3)c2)cnc1N)c1c(Cl)ccc(F)c1Cl [crizotinib]
# Method in brief: as §1
# doramapimod = compound: Cc1ccc(-n2nc(C(C)(C)C)cc2NC(=O)Nc2ccc(OCCN3CCOCC3)c3ccccc23)cc1 [doramapimod]
# Method in brief: as §1
# ispinesib = compound: Cc1ccc(C(=O)N(CCCN)[C@@H](c2nc3cc(Cl)ccc3c(=O)n2Cc2ccccc2)C(C)C)cc1 [ispinesib]
# Method in brief: as §1
# [9] = compound: Cn1cc(-c2ccc3nnc(C(F)(F)c4ccc5ncccc5c4)n3n2)cn1
# Method in brief: as §1
Target,log2 fold change [1],log2 fold change [2],log2 fold change [3],log2 fold change (duvelisib),log2 fold change (gandotinib),log2 fold change (tozasertib),log2 fold change [4],log2 fold change (bafetinib),log2 fold change [5],log2 fold change (nilotinib),log2 fold change [6],log2 fold change (dasatinib),log2 fold change [7],log2 fold change [8],log2 fold change (tipifarnib),log2 fold change (mubritinib),log2 fold change (crizotinib),log2 fold change (doramapimod),log2 fold change (ispinesib),log2 fold change [9]
ATPSCKMT (UniProt Q6P4H8),inactive: -0.14,inactive: 0.042,inactive: -0.226,inactive: -0.047,inactive: 0.159,inactive: 0.07,inactive: -0.102,inactive: -0.008,inactive: -0.05,inactive: 0.023,inactive: -0.011,inactive: 0.131,inactive: -0.071,inactive: 0.091,inactive: -0.002,inactive: 0.054,–,–,–,–
ATP5F1B (UniProt H0YI37),inactive: 0.265,inactive: -0.094,–,inactive: 0.346,inactive: -0.032,–,inactive: -0.343,inactive: -0.595,inactive: -0.3,–,–,inactive: 0.121,–,–,inactive: 0.155,–,–,–,–,–
ARRB1 isoform 2 (UniProt P49407),–,–,inactive: 0.013,inactive: -0.055,inactive: -0.016,inactive: -0.099,inactive: 0.016,inactive: -0.135,inactive: 0.079,–,–,inactive: 0.048,–,inactive: -0.052,inactive: 0.048,inactive: -0.033,inactive: 0.035,inactive: -0.023,inactive: 0.062,inactive: -0.027
ASXL1 (UniProt Q8IXJ9),inactive: -0.205,inactive: -0.071,inactive: -0.045,–,–,inactive: -0.02,–,inactive: 0.213,–,–,–,–,–,inactive: -0.022,inactive: 0.062,inactive: -0.061,–,–,–,–
ASNS (UniProt P08243),inactive: 0.003,inactive: 0.044,inactive: -0.045,–,inactive: 0.002,–,inactive: -0.016,inactive: -0.055,inactive: 0.02,inactive: 0.002,inactive: 0.021,inactive: 0,inactive: -0.003,inactive: 0.034,inactive: -0.033,inactive: 0.012,inactive: -0.015,inactive: -0.026,inactive: 0.031,inactive: 0.015
ATF6 (UniProt P18850),inactive: -0.062,–,–,–,–,–,–,–,–,–,–,–,–,–,–,–,–,–,inactive: -0.447,inactive: -0.326
ASXL2 (UniProt Q76L83),–,–,–,inactive: -0.107,–,–,inactive: -0.098,–,–,–,–,inactive: -0.091,–,–,–,–,–,–,–,–
ATF1 (UniProt P18846),inactive: -0.004,inactive: 0.017,inactive: 0.073,–,inactive: 0.067,–,–,inactive: -0.12,inactive: 0.018,inactive: 0.035,inactive: -0.09,–,inactive: 0.064,inactive: -0.006,inactive: 0.06,inactive: 0.057,–,–,–,–
ATP2B2 (UniProt Q01814),inactive: -0.117,–,inactive: -0.199,inactive: 0.728,inactive: 0,–,inactive: 0.611,–,inactive: 0.015,–,–,inactive: -0.208,–,inactive: 0.155,inactive: -0.202,–,–,–,–,–
ATL2 (UniProt Q8NHH9),inactive: 0.078,inactive: -0.003,inactive: -0.014,–,inactive: -0.035,–,inactive: 0.056,inactive: 0.026,inactive: 0.034,inactive: 0.081,inactive: -0.008,inactive: -0.129,inactive: 0.031,inactive: 0.083,inactive: -0.014,inactive: 0.104,inactive: -0.031,inactive: -0.018,active: 0.376,inactive: 0.18
ATP23 (UniProt Q9Y6H3),inactive: -0.002,inactive: 0.044,inactive: 0.072,–,inactive: -0.128,–,inactive: 0.046,inactive: -0.1,inactive: -0.015,inactive: -0.092,inactive: 0.067,inactive: 0.041,inactive: -0.011,inactive: -0.097,inactive: 0.081,inactive: 0.033,inactive: -0.116,inactive: -0.051,inactive: -0.188,inactive: 0.023
ARL13B (UniProt Q3SXY8),inactive: -0.022,inactive: -0.244,–,inactive: -0.109,inactive: 0.08,inactive: -0.101,inactive: -0.204,inactive: -0.016,inactive: 0.03,inactive: 0.067,inactive: -0.004,inactive: 0.124,inactive: -0.036,–,–,inactive: 0.07,inactive: -0.005,inactive: 0.011,inactive: -0.07,inactive: -0.086
ATE1 (UniProt O95260),–,inactive: 0.017,inactive: -0.152,inactive: -0.023,–,inactive: -0.292,inactive: -0.049,–,–,–,–,inactive: 0.181,–,inactive: -0.015,inactive: 0.104,–,inactive: 0.149,inactive: 0.089,–,–
ATP2C1 isoform 3 (UniProt P98194),–,–,inactive: 0.116,–,–,–,–,inactive: -0.024,–,–,–,–,–,inactive: -0.148,inactive: 0,inactive: -0.056,–,–,–,–
ARL6 isoform 2 (UniProt Q9H0F7),–,–,–,–,–,–,–,–,–,–,–,–,–,–,–,–,–,–,inactive: 0.028,inactive: 0.118
ATF7IP isoform 4 (UniProt Q6VMQ6),–,inactive: -0.055,inactive: -0.036,–,inactive: -0.021,inactive: -0.059,–,inactive: -0.135,inactive: -0.078,inactive: -0.27,inactive: 0.041,–,inactive: -0.009,inactive: 0.018,–,inactive: 0.322,inactive: 0.066,inactive: 0,–,–
ATP5F1B (UniProt F8W0P7),inactive: 0.032,inactive: 0.011,–,inactive: 0.028,–,inactive: -0.065,inactive: 0.033,inactive: 0.097,–,inactive: 0.119,inactive: 0.099,inactive: 0.09,inactive: 0.202,–,inactive: -0.066,inactive: 0.051,inactive: 0.199,inactive: 0.178,inactive: -0.036,inactive: 0.039
ASB6 (UniProt Q9NWX5),inactive: 0.019,inactive: -0.025,–,–,inactive: 0.109,–,–,inactive: -0.039,inactive: 0.014,inactive: -0.066,inactive: -0.279,–,inactive: -0.07,–,inactive: -0.02,inactive: 0.037,inactive: 0.013,inactive: 0.037,inactive: -0.143,inactive: -0.034
ATG4A (UniProt Q8WYN0),–,–,inactive: 0.103,–,–,–,–,–,–,–,–,–,–,inactive: -0.021,–,–,–,–,–,–

# As a working copy, some entries already given.
Target,log2 fold change [1],log2 fold change [2],log2 fold change [3],log2 fold change (duvelisib),log2 fold change (gandotinib),log2 fold change (tozasertib),log2 fold change [4],log2 fold change (bafetinib),log2 fold change [5],log2 fold change (nilotinib),log2 fold change [6],log2 fold change (dasatinib),log2 fold change [7],log2 fold change [8],log2 fold change (tipifarnib),log2 fold change (mubritinib),log2 fold change (crizotinib),log2 fold change (doramapimod),log2 fold change (ispinesib),log2 fold change [9]
ATP5F1B (UniProt H0YI37),inactive: 0.265,inactive: -0.094,–,inactive: 0.346,inactive: -0.032,–,inactive: -0.343,inactive: -0.595,inactive: -0.3,–,–,inactive: 0.121,–,–,inactive: 0.155,–,–,–,–,–
ARRB1 isoform 2 (UniProt P49407),–,–,inactive: 0.013,inactive: -0.055,inactive: -0.016,inactive: -0.099,inactive: 0.016,inactive: -0.135,inactive: 0.079,–,–,inactive: 0.048,–,inactive: -0.052,inactive: 0.048,inactive: -0.033,inactive: 0.035,inactive: -0.023,inactive: 0.062,inactive: -0.027
ASXL1 (UniProt Q8IXJ9),inactive: -0.205,inactive: -0.071,inactive: -0.045,–,–,inactive: -0.02,–,inactive: 0.213,–,–,–,–,–,inactive: -0.022,inactive: 0.062,inactive: -0.061,–,–,–,–
ASNS (UniProt P08243),inactive: 0.003,inactive: 0.044,inactive: -0.045,–,inactive: 0.002,–,inactive: -0.016,inactive: -0.055,inactive: 0.02,inactive: 0.002,inactive: 0.021,inactive: 0,inactive: -0.003,inactive: 0.034,inactive: -0.033,inactive: 0.012,inactive: -0.015,inactive: -0.026,inactive: 0.031,inactive: 0.015
ATF6 (UniProt P18850),inactive: -0.062,–,–,–,–,–,–,–,–,–,–,–,–,–,–,–,–,–,inactive: -0.447,inactive: -0.326
